Measurements from PMC5803255.
Where a chain is given by its changes, count along the chain named. Names and notes keep the numbering of the source. These are yes or no findings as the source states them, for the method shown. Binding seen in cells or lysates may run through a third protein. Some results given as binding are weak or reduced against the parent protein; the word gives no strength. For part of these data: Sequences can lack the tags named with a protein.

The chains behind the UniProt entries cited, without tags or fusion partners. Residues count along the entry.
UniProt P30561, residues 10-848: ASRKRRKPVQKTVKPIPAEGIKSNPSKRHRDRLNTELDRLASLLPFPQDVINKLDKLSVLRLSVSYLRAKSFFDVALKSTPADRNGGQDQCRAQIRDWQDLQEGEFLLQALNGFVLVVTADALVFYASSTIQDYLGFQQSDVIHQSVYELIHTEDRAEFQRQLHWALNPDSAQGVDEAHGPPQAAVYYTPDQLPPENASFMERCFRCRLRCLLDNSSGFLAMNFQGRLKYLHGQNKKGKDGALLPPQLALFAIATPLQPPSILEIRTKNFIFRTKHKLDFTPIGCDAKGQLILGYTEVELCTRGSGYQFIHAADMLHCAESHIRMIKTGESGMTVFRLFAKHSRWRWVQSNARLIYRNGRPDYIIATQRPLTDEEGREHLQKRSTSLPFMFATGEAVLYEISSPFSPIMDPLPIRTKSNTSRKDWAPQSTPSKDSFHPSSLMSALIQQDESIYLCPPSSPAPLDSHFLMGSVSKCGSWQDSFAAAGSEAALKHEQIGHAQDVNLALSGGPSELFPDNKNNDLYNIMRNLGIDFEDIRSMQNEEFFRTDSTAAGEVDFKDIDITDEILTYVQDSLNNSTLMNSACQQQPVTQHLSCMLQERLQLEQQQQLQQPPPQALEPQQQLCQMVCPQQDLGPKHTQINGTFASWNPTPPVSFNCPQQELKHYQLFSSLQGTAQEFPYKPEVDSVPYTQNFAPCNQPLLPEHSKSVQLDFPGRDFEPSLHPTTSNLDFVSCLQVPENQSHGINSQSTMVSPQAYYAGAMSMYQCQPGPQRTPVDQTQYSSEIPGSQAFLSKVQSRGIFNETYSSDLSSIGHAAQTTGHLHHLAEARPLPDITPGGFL

B1: SHP-WT (adenovirally expressed, Ad-SHP-WT) (protein, UniProt Q15466 1-257)
chain: MSTSQPGACPCQGAASRPAILYALLSSSLKAVPRPRSRCLCRQHRPVQLCAPHRTCREALDVLAKTVAFLRNLPSFWQLPPQDQRRLLQGCWGPLFLLGLAQDAVTFEVAEAPVPSILKKILLEEPSSSGGSGQLPDRPQPSLAAVQWLQCCLESFWSLELSPKEYACLKGTILFNPDVPGLQAASHIGHLQQEAHWVLCEVLEPWCPAAQGRLTRVLLTASTLKSIPTSLLGDLFFRPIIGDVDIAGLLGDMLLLR
B2: T55A-SHP (phosphorylation-defective mutant, Ad-T55A-SHP) (protein, UniProt Q15466 1-257)
chain: B1 chain with T55A
B3: Small heterodimer partner (SHP, NR0B2) (protein, UniProt Q62227 1-260)
chain: MSSGQSGVCPCQGSAGRPTILYALLSPSPRTRPVAPASHSHCLCQQQRPVRLCAPHRTCREALDVLAKTVAFLRNLPSFCHLPHEDQRRLLECCWGPLFLLGLAQDAVTFEVAEAPVPSILKKILLEEASSGTQGAQPSDRPQPSLAAVQWLQRCLESFWSLELGPKEYAYLKGTILFNPDVPGLRASCHIAHLQQEAHWALCEVLEPWYPASQGRLARILLMASTLKNIPGTLLVDLFFRPIMGDVDITELLEDMLLLR

Experiments:
[1] = biological target: Aryl hydrocarbon receptor (AhR) (mouse (endogenous in mouse liver)) (UniProt P30561); assay: co-IP; whole cell liver extracts of SHP-KO mice given Ad-SHP-WT or Ad-T55A-SHP and, 2 weeks later, FGF19 for 2 h; CoIP buffer 50 mM Tris pH 8.0, 150 mM NaCl, 2 mM EDTA, 0.3% NP40, 10% glycerol; precipitating antibody not stated for this panel
[2] = biological target: Aryl hydrocarbon receptor (AhR) (mouse (endogenous in mouse liver)) (UniProt P30561); assay: co-IP; mouse liver extracts (text: whole cell; legend: nuclear) from mice fasted 12 h, refed 4 h, or fasted 4 h and treated with FGF19 for 2 h; AhR immunoprecipitates blotted for SHP; CoIP buffer 50 mM Tris pH 8.0, 150 mM NaCl, 2 mM EDTA, 0.3% NP40, 10% glycerol

Binder	binding [1]	binding [2]
B1	binds	
B2	no binding	
B3		binds
